# Data as given in PubChem BioAssay AID1671195 (Yale University, 2021).
# Assay: 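Regulators of LDL receptor activity judged by labelled LDL uptake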 (primary screen)
# System: human Huh7 hepatoma cells
# Knock-down reagent: siRNA pool against human genes, 18 nM
# Time to read-out: about 2 to 2.5 days of knockdown, then 8 h LDL uptake
# Treatment: DiI-labelled LDL at 30 µg/ml for 8 h, in lipoprotein-deficient serum medium
# Detection: 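Fluorescent LDL signal imaged in cells, scaled to the plate median, robust z-score for each replicate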
# Reading the numbers: robust z-score: higher = more LDL uptake after knockdown
# Call rule: 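Active when two or more replicates show a robust z-score above 2 or below -2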
# This is a random part of about 22,000 reagents. Of all reagents, about 1,510 (6.9%) were called active. 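Active includes knockdowns raising or lowering LDL uptake; positive z-scores mean more uptake, negative mean less.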 Unmarked entries are inactive. The numbers tell different reagents against one gene apart. Reagent sequences are not shown.
gene symbol,reagent no.,"robust z-score, replicate 1","robust z-score, replicate 2","robust z-score, replicate 3"
MGAT4FP,1,-0.966,-0.594,-0.963
CCKBR,1,0.27,-0.137,-0.016
SLC7A8,1,-0.492,-0.592,-0.372
RP2,1,-1.35,-0.863,-0.651
ARHGAP36,1,0.557,0.432,0.278
PLEKHG1,1,-1.14 (active),-2.09,-2.19
SSX2IP,1,-0.0421,-0.306,-0.954
ZNF773,1,-0.0826,0.0536,0.00913
ZNF513,1,-0.0245,-0.134,0.37
PLA2G4D,1,-0.0763,0.538,0.369
GUSBP14,1,0.245,0.0325,-0.356
GUSBP14,2,-0.574,0.00898,-0.131
LOC440488 (retired record),1,0.859,0.607,0.461
SPMIP11,1,0.547,1.07,0.889
WDFY3-AS2,1,0.989,1.19,0.0636
ZCWPW1,1,-1.62,-1.21,-0.49
ZNF664,1,-1.35,-1.63,-0.8
EBLN3P,1,-0.764,-0.983,-0.342
SIGLEC9,1,0.553,0.35,0.965
TRAPPC13,1,-1.07,-1,-1.42
SPRED3,1,-1.73,-1.53,-1.51
H2BC5,1,2.18,1.12,1.71
HSF5,1,-1.21,-1.53,-1.09
ZSCAN26,1,1.31,1.99,1.44
LRRC34,1,-0.339,-0.0323,-0.9
TMEM165,1,1.01,2.13,-0.517
TRIM59,1,0.448,0.558,0.501

Next part, starting with the last 7 of the part before.
gene symbol,reagent no.,"robust z-score, replicate 1","robust z-score, replicate 2","robust z-score, replicate 3"
SPRED3,1,-1.73,-1.53,-1.51
H2BC5,1,2.18,1.12,1.71
HSF5,1,-1.21,-1.53,-1.09
ZSCAN26,1,1.31,1.99,1.44
LRRC34,1,-0.339,-0.0323,-0.9
TMEM165,1,1.01,2.13,-0.517
TRIM59,1,0.448,0.558,0.501
IFNL1,1,-1.82,-1.84,-1.71
ZNF335,1,-0.186,-0.331,-0.404
NHSL2,1,-0.416,1.88,1.31
NHSL2,2,-0.213,-0.502,0.0783
ZBTB43,1,-0.741,-0.265,-0.282
ACTR10,1,-1.27,-1.13,-0.405
VXN,1,0.128,-0.0171,0.0692
MAP3K14,1,-0.354,0.805,0.19
MUC20,1,0.233,-0.0954,-0.337
RRP36,1,-0.93,-1.28,-0.532
GABRA6,1,-0.889,-1.23,-0.5
CDKN1B,1,-1.92,-1.8,-0.195
CRELD2,1,-0.265,-0.582,-0.236
ITGAM,1,-0.184,-1.26,-1.49
ZNF85,1,-2.71,-1.78,-1.27
HSP90B1,1,-1.11,-0.944,-0.41
OR4F15,1,-0.714,-0.955,-0.624
HAPSTR2,1,0.962,1.25,0.769
FBXO38,1,-0.39,-0.391,0.199
OPRM1,1,0.771,0.408,1.48
TFPI,1,-2.4 (active),-1.66,-2
OR4A5,1,1.52,0.893,1.72
MAGEC2,1,1.09,0.528,1.26
DYNLL1,1,0.335,0.833,-0.541
ZNF837,1,-1.69,-1.35,-1.18
LINC00839,1,0.277,-0.0838,0.176
LOC391360 (retired record),1,1.44,0.666,0.562
C1GALT1C1,1,0.414,0.657,0.0181
CKAP5,1,-0.659,-1.36,-0.552
NPIPB7,1,0.697,0.501,0.392
MAPKAPK5-AS1,1,1.2,1.21,1.12
PSMB3,1,-0.598,-1.1,-0.982
NDUFAF4,1,0.844,-1.27,0.639
TMEM181,1,-0.929,-1.3,-1.74
NCOA2,1,-0.265,-0.316,-0.583
NIPBL,1,0.0895,0.537,-0.591
TRPC3,1,-0.397,-0.819,-0.953
MYB,1,-0.686,-0.585,-0.475
RCOR2,1,-0.853,-0.705,-0.921
UBD,1,2.7 (active),2.5,2.41
ZNF563,1,-0.402,-0.542,-0.304
